Assay type in all cases: cell-based, human
One series concerns MET in OVCA429 cells. Nature of the series: Fixed cell fluorescence imaging with Tz-CFDA and MET immunostaining, OVCA429. The settings on record: 40 nM, then 1 μM Tz-CFDA.
In another series the test system is OVCA429 cells. Briefly: Live cell fluorescence imaging, two-step vs one-step labeling, OVCA429. To be noted: live OVCA429 cells, 40, 200 and 1000 nM, 30 min; TCO agent followed by 1 μM Tz-CFDA.
Series [1] relates to MET, PDGFRα, RON, AXL, KDR in OVCA429 cells. Nature of the series: Fixed cell imaging of Foretinib-TCO/Tz-CFDA with immunostaining of 5 RTKs. To be noted: 200 nM, then 1 μM Tz-CFDA.

Consider `O=C(NCCn1cc(-c2cnc3nnn(Cc4ccc5ncccc5c4)c3n2)cn1)OC1CC/C=C/CCC1` (stereo not shown) [PF04217903-TCO, (E)-cyclooct-4-en-1-yl (2-(4-(1-(quinolin-6-ylmethyl)-1H-[1,2,3]triazolo[4,5-b]pyrazin-6-yl)-1H-pyrazol-1-yl)ethyl)carbamate], for which, in the series with MET in OVCA429 cells, the “co-localization of drug and MET antibody co-staining” value was “superb co-localization”. For the same compound, the “Manders correlation coefficient of colocalization with MET antibody staining” value with MET in OVCA429 cells (selected image) is given as 0.969. As for `COc1cc2c(Oc3ccc(NC(=O)C4(C(=O)Nc5ccc(F)cc5)CC4)cc3F)ccnc2cc1OCCCN1CCN(C(=O)OC2CC/C=C/CCC2)CC1` (stereo not shown) [Foretinib-TCO, (E)-cyclooct-4-en-1-yl 4-(3-((4-(2-fluoro-4-(1-((4-fluorophenyl)carbamoyl)cyclopropanecarboxamido)phenoxy)-6-methoxyquinolin-7-yl)oxy)propyl)piperazine-1-carboxylate], in the series on OVCA429 cells, the “cellular fluorescence signal / staining” value is “dose-dependent increase in cellular fluorescence signal”. In addition, the “co-localization with membrane signal from MET, AXL and RON antibody staining” value in series [1] was “good co-localization”. Also, the “co-localization with PDGFRα and KDR antibody staining” value in series [1] (low expression of these proteins in OVCA429) is on record as “less co-localization”. On to `COc1cc2c(Oc3ccc(NC(=O)C4(C(=O)Nc5ccc(F)cc5)CC4)cc3F)ccnc2cc1OCCCN1CCOCC1` [Foretinib, N1’-[3-fluoro-4-[[6-methoxy-7-(3-morpholinopropoxy)-4-quinolinyl]oxy]phenyl]-N1-(4-fluorophenyl)cyclopropane-1,1-dicarboxamide, reference compound], for which the “background signal of unlabeled control with Tz-CFDA” value with MET in OVCA429 cells is reported as “low background signal”. As to `COc1cc2c(Oc3ccc(NC(=O)C4(C(=O)Nc5ccc(F)cc5)CC4)cc3F)ccnc2cc1OCCCN1CCN(C(=O)CCc2ccc3n2[B-](F)(F)[N+]2=C(C)C=C(C)C2=C3)CC1` [Foretinib-BODIPY-FL, 5,5-difluoro-7-(3-(4-(3-((4-(2-fluoro-4-(1-((4-fluorophenyl)carbamoyl)cyclopropanecarboxamido)phenoxy)-6-methoxyquinolin-7-yl)oxy)propyl)piperazin-1-yl)-3-oxopropyl)-1,3-dimethyl-5H-dipyrrolo[1,2-c:2',1'-f][1,3,2]diazaborinin-4-ium-5-uide], the “cellular fluorescence signal / staining” value in the series on OVCA429 cells is reported as “cellular staining only at the highest concentration tested”.

These data come from publication PMC3827223, “Bioorthogonal Small Molecule Imaging Agents Allow Single-Cell Imaging of MET” (PLoS ONE, 2013).
